Test results as given in PubChem BioAssay AID540276 (National Center for Advancing Translational Sciences (NCATS), 2011).
“And” between values parts separate entries of the source, which are not always exact repeats. Equal values may be shown once. The whole screen tested about 300,000 compounds, of which about 5,400 (1.8%) were called active. The shares of active, inactive and inconclusive entries below differ from those in the screen. Calls follow the shape of the full dose curve; tested in HEK293 cells. Potencies of inconclusive entries are doubtful fits and often do not repeat.

Assay: qHTS for inhibitors of binding or entry into cells for Marburg Virus
Conditions: Marburg virus pseudotyped entry inhibition, cell reporter; series mostly up to 37.8 µM
Potency is read from the fitted curve at half-maximal effect.

SMILES	Potency
CC1=CC(C)(C)N(S(=O)(=O)c2ccc(C)cc2)c2ccc(C)cc21	inconclusive: 5.8 µM [inhibitor, partial curve]
O=C(OC(c1ccc(NS(=O)(=O)c2ccccc2)cc1)(C(F)(F)F)C(F)(F)F)c1ccccc1	inconclusive: 12.6 µM [inhibitor, partial curve, poor fit]
Cn1c(=O)n(C)c2cc(S(=O)(=O)N3CCCc4ccccc43)ccc21	inconclusive: 14.6 µM [inhibitor, single point]
Cc1ccccc1NC(=O)c1ccc(NC(=O)C2CCCO2)cc1 (configuration not stated)	inconclusive: 35.5 µM [activator, single point]
CCOc1ccc(NC(=O)CN(C)C(=O)C2CCN(c3ncnc4sc(C)c(C)c34)CC2)cc1OCC	inconclusive: 11.2 µM [inhibitor, single point]
O=c1n(CC2CO2)c(=O)n(CC2CO2)c(=O)n1CC1CO1 (configuration not stated)	active: 0.447 µM
CN(C)C(=O)Oc1ccc(-c2cn3cc(Cl)ccc3n2)cc1	inconclusive: 7.94 µM [inhibitor, partial curve]
O=C(CSCc1ccc(Cl)cc1)NN=C1CCCCCC1	inconclusive: 6.31 µM [activator, single point]
CCOc1ccc(-c2cc(C(F)(F)F)c(C#N)c(SCC(=O)Nc3ccccc3)n2)cc1	inactive
Cc1ccsc1/C=N/NC(=O)c1ccc([N+](=O)[O-])cc1	inactive
CCOc1ccc(C(=O)N/N=C(/C)C2C(=O)c3ccccc3C2=O)cc1	inconclusive: 16.4 µM [activator, single point]
Cc1ccc(N(C(=O)CCC(=O)Nc2cc(C)on2)C(C(=O)NC2CCCC2)c2cccs2)cc1 (configuration not stated)	inconclusive: 11.2 µM [inhibitor, partial curve, poor fit]
CCOc1ccccc1NC(=O)CSc1cc(=O)n(CC)c2ccccc12	inconclusive: 0.708 µM [inhibitor, full curve, poor fit]
CCOc1ccc2oc(C(=O)O)c(C)c2c1	inactive
Cc1ccc(NC(=O)CNCc2ccccn2)cc1S(=O)(=O)N(C)C	inconclusive: 10 µM [activator, partial curve]
O=C(N/N=C/c1ccccc1OCc1ccccc1Cl)c1cccnc1	inconclusive: 2.24 µM [inhibitor, single point]
CS(=O)(=O)N(CC(=O)Nc1ccccc1-c1ccccc1)c1ccccc1	inconclusive: 35.5 µM [inhibitor, single point]
O=C(CCCCCN1C(=O)CCC1=O)Nc1ccc2c(c1)OCO2	inconclusive: 7.08 µM [activator, partial curve, poor fit]
O=C(O)c1cccc(Cn2c(Cl)c(/C=N/NC(=O)c3ccccc3Cl)sc2=O)c1	inactive
O=C(CN(Cc1ccc2c(c1)OCO2)C(=O)CNC(=O)c1ccco1)NC1CCCCC1	inconclusive: 2.24 µM [inhibitor, single point]
NC(=O)c1ccc[n+](CC(=O)Nc2ccccc2C(=O)O)c1	inactive
CCCCNC(=O)COC(=O)c1c2c(nc3ccccc13)/C(=C/c1cccs1)CC2	inconclusive: 35.5 µM [inhibitor, partial curve, poor fit]
CC(=O)N(C)C1=C(N2CCOCC2)C(=O)c2ccccc2C1=O	active: 1.46 µM

Quoted at random: 2 records from the list
SMILES	Potency
CC1=CC(C)(C)N(S(=O)(=O)c2ccc(C)cc2)c2ccc(C)cc21	inconclusive: 5.8 µM [inhibitor, partial curve]
CS(=O)(=O)N(CC(=O)Nc1ccccc1-c1ccccc1)c1ccccc1	inconclusive: 35.5 µM [inhibitor, single point]

Following part.

SMILES	Potency
CCCn1c(-c2ccc(OC)cc2)nc2nc3ccccc3nc21	inactive
Cc1ccccc1C(=O)Nc1cccc(C(=O)N/N=C/c2ccccn2)c1	inactive
CCN1CCc2nc(NC(=O)c3cc(F)c(F)cc3Cl)sc2C1	inconclusive: 35.5 µM [inhibitor, single point]
COc1ccc(Cl)cc1NC(=S)N(CCCN1CCOCC1)Cc1cn(C)c2ccccc12	inconclusive: 25.1 µM [inhibitor, single point]
O=C(NC(=S)N1CCCc2ccccc21)c1ccc(Br)cc1	inactive
Cn1c(=O)c2[nH]c(-c3ccc(S(=O)(=O)O)cc3)nc2n(C)c1=O	inconclusive: 2.51 µM [inhibitor, full curve, poor fit]
CCOC(=O)C(C)Oc1cc(C)cc2oc(=O)c3c(c12)CCCC3 (configuration not stated)	inconclusive: 32.6 µM [inhibitor, single point]
Cc1sc2ncn(/N=C/c3ccco3)c(=O)c2c1C	inconclusive: 12.6 µM [activator, partial curve]
O=[N+]([O-])c1ccc(C(O)CN2CCN(Cc3ccccc3)CC2)cc1 (configuration not stated)	inconclusive: 35.5 µM [inhibitor, single point]
Cc1csc2c(=O)sc(NC(=O)c3cccs3)nc12	inactive
N/C(=N\OC(=O)c1cc(Cl)ccc1Cl)c1ccncc1	inactive
CC(C)(C)NC(=O)COc1ccc(CNCCc2ccccc2)cc1	inconclusive: 28.2 µM [inhibitor, single point]
S=C1NCCOCCOCCOCCN1	inconclusive: 0.316 µM [activator, partial curve, poor fit]
O=C(CN1CCN(Cc2ccccc2Cl)C1=O)NCc1ccco1	inconclusive: 12.6 µM [inhibitor, single point]
O=C(NCC1CCCO1)c1cccc(S(=O)(=O)Nc2cccc(C(F)(F)F)c2)c1 (configuration not stated)	inconclusive: 35.5 µM [inhibitor, single point]
COc1ccc(NC(=O)C2=C(C)C(=O)OC23CCC(C)CC3)cc1Cl (configuration not stated)	inconclusive: 16.4 µM [inhibitor, single point]
COCCCNC(=O)CCc1nnc(Cc2ccc(-c3ccccc3)cc2)o1	inactive
COc1ccc(C(C)=O)cc1CN1CCCCC1	inconclusive: 7.94 µM [activator, partial curve, poor fit]
CCOc1ccc(S(=O)(=O)Nc2cccc(C(=O)NCC(C)(C)N3CCOCC3)c2)cc1	inconclusive: 11.2 µM [inhibitor, partial curve, poor fit]
COc1ccc(N(CC(=O)Nc2ccc3c(c2)OCCO3)S(=O)(=O)c2c(C)nn(C)c2C)cc1	inactive
COc1ccc2nc(NC(=O)c3cnccn3)sc2c1	inconclusive: 10.3 µM [inhibitor, partial curve, poor fit]
COc1cccc(NC(=O)CSc2nc3c(c(=O)n2C)SC(C)C3)c1 (configuration not stated)	inconclusive: 6.51 µM [activator, single point]
Cc1cc(NC(=O)C2CCCN(S(=O)(=O)c3cccc4nonc34)C2)ccc1Br (configuration not stated)	inconclusive: 31.6 µM [activator, single point]

SMILES	Potency
O=C(CSc1nnnn1-c1ccc(O)cc1)Nc1cccc(S(=O)(=O)N2CCCC2)c1	inconclusive: 3.55 µM [activator, single point]
Cc1ccc(Nc2nc3ccccc3c(=O)[nH]2)cc1C	inconclusive: 0.891 µM [activator, full curve, poor fit]
CCC(C)NCCCOc1ccc([N+](=O)[O-])cc1 (configuration not stated)	inconclusive: 1.12 µM [activator, full curve, poor fit]
CCN(Cc1ccccc1)S(=O)(=O)c1ccc(C(=O)Nc2nnc(C)o2)cc1	inconclusive: 35.5 µM [inhibitor, single point]
O=c1c(Cc2c(F)cccc2Cl)c(O)ccn1Cc1ccc2c(c1)OCO2	inconclusive: 35.5 µM [activator, single point]
Cc1nnc(SCc2ccccc2CSc2nnc(C)s2)s1	inconclusive: 12.6 µM [activator, single point]
O=C(C1CCCC1)N1CCN(S(=O)(=O)c2ccc(Cl)cc2)CC1	inconclusive: 35.5 µM [inhibitor, single point]
CC1(C)C(C=C(Cl)Cl)C1C(=O)N(Cc1ccc(Cl)cc1)C1CCS(=O)(=O)C1 (configuration not stated)	active: 12.6 µM
FC(F)(F)c1cc(CO[C@H]2CCCN[C@H]2c2ccccc2)cc(C(F)(F)F)c1	active: 14.1 µM
Nc1nnc(SCc2cccnc2)s1	inconclusive: 23.1 µM [activator, partial curve, poor fit]
CCOC(=O)c1sc(N)c(C(=O)Nc2ccccc2OC)c1C	inconclusive: 5.62 µM [inhibitor, single point]
CC1=C(C)/C(=N\OS(=O)(=O)c2ccc(C)cc2)C=CC1=O	active: 1.41 µM
CCOc1ccc(C(=O)CSCCC(=O)O)cc1	inconclusive: 1.26 µM [inhibitor, partial curve, poor fit]
CSc1nn(Cc2cccc(F)c2)c(N(C(C)=O)C(C)=O)c1S(=O)(=O)c1ccccc1	inactive
CCc1ccc(NC(=O)c2ccc(F)c(S(=O)(=O)NCC3COc4ccccc4O3)c2)cc1 (configuration not stated)	active: 11.6 µM
COc1ccc(C(=O)N2CCN(C)C(=O)[C@@H]2C)cc1OC1CCN(C(C)C)CC1	inconclusive: 35.5 µM [activator, single point]
Nc1nc(NCCCN2CCOCC2)nc(Nc2ccccc2)c1[N+](=O)[O-]	inconclusive: 14.1 µM [inhibitor, partial curve, poor fit]
CCOc1cccc(C(=O)Nc2cccc(C(=O)NC(C)(C)C)c2)c1	inactive
O=C(NC(=S)Nc1ncccn1)c1ccccc1Br	inconclusive: 3.16 µM [activator, partial curve, poor fit]
COc1ccc(CCNc2oc(COc3ccc(Cl)cc3)nc2C#N)cc1OC	inconclusive: 20 µM [inhibitor, partial curve, poor fit]
CC(=O)c1cccc(NC(=O)C2=CC(c3ccco3)=NS(=O)(=O)N2C)c1	inconclusive: 4.47 µM [inhibitor, full curve] and inconclusive: 7.94 µM [activator, partial curve, poor fit]

Some values from the results shown:
Potency with `COc1ccc(C(=O)N2CCN(C)C(=O)[C@@H]2C)cc1OC1CCN(C(C)C)CC1` is entered as inconclusive: 35.5 µM [activator, single point]
Potency with `CCOc1cccc(C(=O)Nc2cccc(C(=O)NC(C)(C)C)c2)c1` is entered as inactive
